Test results from PubChem BioAssay AID623959 (National Center for Advancing Translational Sciences (NCATS), 2012).
In all, about 1,400 compounds went through this assay and fewer than 10 were called active. Roughly 8% stayed inconclusive and do not appear here. Calls come from the whole dose curve; as a rule, active = well fitted curve in the direction sought with a large enough effect; inconclusive = small, poorly fitted or top-dose-only effect, or another doubt; inactive = no such curve, though single readings can be large or run the other way. The list shows a part of the results.

Amino acid sequences for entries named in this document (tags omitted).
UniProt Q8NER1, whole entry, looked up: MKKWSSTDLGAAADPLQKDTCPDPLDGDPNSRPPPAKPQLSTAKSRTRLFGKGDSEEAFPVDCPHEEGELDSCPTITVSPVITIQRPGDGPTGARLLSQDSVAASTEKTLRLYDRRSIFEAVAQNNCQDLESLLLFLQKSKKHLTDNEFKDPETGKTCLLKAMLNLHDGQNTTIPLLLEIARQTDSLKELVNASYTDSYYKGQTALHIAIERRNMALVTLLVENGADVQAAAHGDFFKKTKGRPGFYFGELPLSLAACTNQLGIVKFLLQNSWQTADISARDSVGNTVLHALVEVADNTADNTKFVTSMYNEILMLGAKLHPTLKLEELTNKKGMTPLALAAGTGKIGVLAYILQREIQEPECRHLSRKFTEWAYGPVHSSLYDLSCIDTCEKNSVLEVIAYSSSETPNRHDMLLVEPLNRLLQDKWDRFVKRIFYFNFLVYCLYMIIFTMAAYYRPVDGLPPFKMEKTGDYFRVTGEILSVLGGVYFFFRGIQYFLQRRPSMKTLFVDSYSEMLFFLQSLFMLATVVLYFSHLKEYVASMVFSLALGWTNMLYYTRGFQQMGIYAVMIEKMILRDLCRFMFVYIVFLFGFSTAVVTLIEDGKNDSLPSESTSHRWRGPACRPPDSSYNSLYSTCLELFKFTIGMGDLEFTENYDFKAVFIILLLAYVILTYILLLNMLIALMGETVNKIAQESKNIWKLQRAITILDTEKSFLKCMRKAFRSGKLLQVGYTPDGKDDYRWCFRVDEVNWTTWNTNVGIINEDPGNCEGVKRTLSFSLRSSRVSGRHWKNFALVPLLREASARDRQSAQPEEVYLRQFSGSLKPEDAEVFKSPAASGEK

target: Transient receptor potential cation channel subfamily V member 1 (Homo sapiens) (UniProt Q8NER1); experiment: qHTS Assay for Compounds that Act as Potentiators of the Vanilloid Receptor 1: Hit Validation; conditions: TRPV1-expressing cells, Fluo-8 calcium influx, capsaicin EC20; series mostly up to 42.1 µM; activity change, positive = potentiation: at the top concentration; note: % of control where 0% means no effect
Procedure, shortened: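 Calcium influx via Fluo-8 fluorescence (480/520 nm) on FDSS: 10 s baseline, 3 min compound read, 2 min read after EC20 capsaicin. TRPV1-expressing cells plated 2000/well, grown overnight at 35.5 °C.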

Activity change, positive = potentiation, inactive:
CC(=O)NCCCc1nc2ccccc2n1Cc1cc(C)ccc1C -38.3%, O=C(CC(=O)N/N=C/c1ccc(C(=O)O)cc1)NCCc1ccccc1 -10.6%, CC(C)Cc1nnc(NC(=O)Cc2cccs2)s1 -3.2%, CC(C)SC1=NC(C)(C)C=C(/C=C/c2ccc(Cl)cc2Cl)N1 -6.62%, COc1ccc(OC)c(NC(=O)CCC(=O)Oc2ccc(C)cc2)c1 -1.54%, CCCCCCSc1ccc([C@@H]2[C@H]3C(=O)N(C)C(=O)[C@H]3[C@]3(C(=O)OC)CCCCN23)cc1 0.0026%, CCCC12CN3CC(C)(CN(C1)C31CCCCC1)C2=O -5%, Cc1ccc(C2=NN(C)c3nc4ccccc4n3C2)cc1 -39%, O=C(CSc1nc(O)c(C2CCCCC2)c(=O)[nH]1)NCC1CCCO1 (stereo not drawn) 2.23%, CC(=O)Nc1ccc(S(=O)(=O)NCCC(=O)OCc2nnc(-c3ccccc3)o2)cc1 6.57%, CC1CCC(C(=O)NNC(=O)c2cc(-c3ccco3)[nH]n2)CC1 (stereo not drawn) -8.63%, COc1ccc(N(CC(=O)NCCSc2ccccn2)S(=O)(=O)c2ccccc2)cc1Cl 3.24%, O=C(/C=C\c1ccccc1OC(=O)c1ccccc1F)c1cc2ccccc2o1 -33.8%, COC(=O)CCCC1=CC2=CC(=O)C(C)(OC(=O)c3cccs3)C(=O)C2=CN1CCCCO (stereo not drawn) -2.94%, Cc1csc(N(C)C(=O)CSc2nnc(COc3ccccc3C)o2)n1 10.6%, Nc1ccc2c(c1)OCCOCCOCCOCCOCCO2 -38.3%, Cc1cc(C)nc(Nc2ccccc2F)n1 -5.49%, COc1ccc(CCN(C)C(=O)CNC(=O)Cc2cccc3ccccc23)cc1OC 4.22%, COc1ccc(Br)cc1/C=N/n1c(-c2ccccc2)n[nH]c1=S 5.38%, COC(=O)c1cccc(C23CC4(C2)[C@H](CN(Cc2ccc(-c5ccccc5)cc2)[C@@H]4c2ccccc2)C3c2ccccc2)c1 (stereo partly drawn) 4.78%, COc1ccc2nc(NC(=O)c3ccc(Br)s3)sc2c1 -38.7%, CCN1CCN(C(=O)c2cc3cc4cc(OC)ccc4nc3s2)CC1 -2.74%, CCCOc1ccc(/C=C/C(=O)N2CCOCC2)cc1 -38.9%, Cc1ccc(NC(=S)Nc2cccc3cnccc23)cc1C -6.89%, CCn1c(CC(=O)Nc2ccc(Cl)c(Cl)c2)nnc1SCc1ccc(C)cc1 0.598%, CC(C)(C)c1ccc(/C=C/C(=O)N2CCCCC2)cc1 -38.6%, CCCCC(=O)Nc1ccc(C(=O)Nc2ccc(S(=O)(=O)N3CCCC3)cc2)cc1 -8.84%, CCCCC1=CC2=CC(=O)C(C)(OC(=O)CC)C(=O)C2=CN1c1ccccc1 (stereo not drawn) 0.364%, CC(C)(C)N=C1NN=C(c2ccc(S(=O)(=O)N3CCCCC3)cc2)CS1 10.5%, CC1CCCCN1C(=O)COC(=O)c1ccc(=O)n(Cc2ccccc2)n1 (stereo not drawn) 4.62%, O=C(Nc1ccc(Br)cn1)c1ccc(Cl)s1 -38.1%, Cc1ccc(S(=O)(=O)N2CCOCC2)cc1C(=O)Nc1ccc2c(c1)CCC2 -31.5%, COc1cc2c(C(=O)N3CCOCC3)c(CSc3ccccc3)n(C)c2cc1Br -3.18%, COc1ccc(CNC(=O)COC(=O)/C=C/c2cccc(Br)c2)cc1OC -28.3%, COc1cccc(/C=C/C(=O)Nc2ccc3[nH]c(=O)[nH]c3c2)c1 -38%, COc1nc(OC)nc(N2CCC(NC(=O)C(Cc3cccc(OC)c3OC)NC(C)=O)CC2)n1 (stereo not drawn) -3.2%, CC(=O)NCC(=O)N(Cc1ccco1)C1(C(=O)NC2CCCC2)CCCCC1 2.18%, COc1ccc(COC(=O)N/N=C(\C)CC(=O)NCc2ccc(Cl)cc2)cc1 -6.22%, CCN(c1ccccc1)S(=O)(=O)c1ccc2c(c1)N(C(C)=O)CCO2 -20.4%, O=C(Nc1ccccc1)c1cc(-c2ccccc2Cl)no1 -38.8%, O=C(c1ccccc1F)N1CCN(c2ccccn2)CC1 -10.9%, Cc1ccc(NC2CCCN(C(=O)CCC(=O)c3ccccc3)C2)cc1C (stereo not drawn) -38.3%, O=C(c1cc(C2CC2)nc2ccccc12)N1N=C(C(F)F)CC1(O)C(F)F (stereo not drawn) -3.7%, O=C(O/N=C1\CCS(=O)(=O)c2sccc21)c1c(F)cccc1F 6.48%, Cc1ccc(OCC(=O)NC(C)c2ccccc2)cc1 (stereo not drawn) -12.5%, O=C(NCc1ccccc1)NS(=O)(=O)c1ccccc1Cl -13.3%, Cc1cccc(NC(=O)c2ccc(S(=O)(=O)C(F)F)cc2)c1C -27.8%, Cc1ccnc(NC(=O)CCC(=O)N(CC(=O)NC2CCCCC2)Cc2cccs2)c1 -5.42%, CCn1cnc2cc(NCc3ccc(OC)cc3)ccc21 -4.4%, Cn1c(=O)n(CC(=O)N2CCN(c3nnc(-c4ccccc4)c4ccccc34)CC2)c2ccccc21 -6.24%, COC(=O)c1c(C(=O)OC)c(-c2ccccc2)n2c1CS(=O)C2 (stereo not drawn) 9.33%, Cc1ccccc1N1CCN(c2ncnc3c2cnn3Cc2ccc(Cl)cc2)CC1 -3.54%, O=C(CSc1nc(C2CC2)nc2ccccc12)N1CCCCC1 -6.58%, COc1cc(/C=C/C(=O)O)ccc1S(=O)(=O)N1CCCc2ccccc21 -7.2%, CC(C)c1ccc(NCCC(=O)c2cccs2)cc1 -39%, Cc1ccc2c(c1)[C@H]1[C@H](CO2)[C@H](c2ccccc2)[C@]2(C)C(=O)Nc3cc(Cl)ccc3C(=O)N12 3%, CC(C)Oc1ccc(C(=O)O)c(C(=O)O)c1 -6.24%, CCSC1=NCCN1S(=O)(=O)c1ccc(F)cc1 -7.11%, O=C(CCCCn1c(=O)c2ccccc2n(CC(=O)NC2CCCC2)c1=O)NCc1ccco1 -5.96%, COCCN(CCOC)S(=O)(=O)c1ccc(C(=O)Nc2nnc(C3CC3)o2)cc1 -6.89%, O=C(c1ccc(-n2c(SCc3cccc(F)c3)nc3ccccc3c2=O)cc1)N1CCOCC1 -37.8%, CCc1nc(Nc2ccccc2)c2oc3ccccc3c2n1 -39.2%, CCCCc1nc(N2CCN(C(=O)c3ccco3)CC2)c(C#N)c2c1CCCC2 -38.4%, Cc1nc(N2CCCCC2)c2c(C)c(C(=O)Nc3ccccc3C(F)(F)F)sc2n1 -30.9%, O=C(O)c1ccc(NC(=O)c2ccccc2Br)c(NC(=O)c2ccccc2Br)c1 -9.56%, CC(C)(C)c1ccc2c(c1)OC(C(=O)N/N=C\c1ccncc1)CO2 (stereo not drawn) -38.1%, Cc1ccc(N2C(=O)C(CC(=O)Nc3cccc(F)c3)N(CCc3ccncc3)C2=O)cc1 (stereo not drawn) -6.35%, CC1(C)CC(NS(=O)(=O)c2ccc(Cl)cc2)CC(C)(C)N1 -14.3%
